{"source": "the supplement of paper PMC8728848", "binders": {"B1": {"name": "EULS2 M1 (Oryza sativa) (protein)", "chain": "MVYCRANPNYAMTARNGAVVLAPANPKDEYQHWIKDMRWSTSIKDEEGYPAFALVNKATGQAIKHSLGQSHPVRLVPYNPEVMDESVLWTESRDVGNGFRCIRMVNNIYLNFDAFHGDKYHGGVRDGTDIVLWKLCEGDNQRWKIQPYYILEQKLISEEDLNSAVDHHHHHH"}}, "test_in_all_cases": "glycan array binding signal (z-score within array); higher = stronger binding", "details_in_all_cases": "glycan notation: IUPAC condensed, linker removed", "key": {"[1]": {"biological_target": "GalNAc(b1-4)GlcNAc(b1-2)Man", "outline": "(§1)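 Glycan array data came from 3228 arrays in the Consortium for Functional Glycomics database, and only arrays with an available protein sequence were kept. Glycan names were put into IUPAC-condensed notation, and columns mapping to the same glycan were averaged. The binding signal is a within-array Z-score, averaged across arrays of one protein sequence run at different concentrations or buffers and across linkers. A negative Z-score can be read as non-binding.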"}, "[2]": {"biological_target": "GalNAc(b1-4)GlcNAc(b1-2)Man(a1-3)[GalNAc(b1-4)GlcNAc(b1-2)Man(a1-6)]Man(b1-4)GlcNAc(b1-4)GlcNAc", "outline": "as §1"}, "[3]": {"biological_target": "GalNAc(b1-4)GlcNAc(b1-3)GalNAc(b1-4)GlcNAc", "outline": "as §1"}, "[4]": {"biological_target": "GalNAc(b1-4)GlcNAc6S", "outline": "as §1"}, "[5]": {"biological_target": "GalNAc(b1-6)GalNAc", "outline": "as §1"}, "[6]": {"biological_target": "GalNAc3S(b1-4)GlcNAc", "outline": "as §1"}, "[7]": {"biological_target": "GalNAc3S(b1-4)GlcNAc3S", "outline": "as §1"}, "[8]": {"biological_target": "GalNAc3S(b1-4)[Fuc(a1-3)]GlcNAc", "outline": "as §1"}, "[9]": {"biological_target": "GalNAc4S6S(b1-4)GlcNAc", "outline": "as §1"}, "[10]": {"biological_target": "GalNAc6S(b1-4)GlcNAc", "outline": "as §1"}, "[11]": {"biological_target": "Glc(a1-4)Glc", "outline": "as §1"}, "[12]": {"biological_target": "Glc(a1-4)Glc(a1-4)Glc(a1-4)Glc", "outline": "as §1"}, "[13]": {"biological_target": "Glc(a1-6)Glc(a1-6)Glc", "outline": "as §1"}, "[14]": {"biological_target": "Glc(a1-6)Glc(a1-6)Glc(a1-6)Glc", "outline": "as §1"}, "[15]": {"biological_target": "Glc(b1-4)Glc", "outline": "as §1"}, "[16]": {"biological_target": "Glc(b1-6)Glc", "outline": "as §1"}, "[17]": {"biological_target": "GlcA(b1-3)Gal", "outline": "as §1"}, "[18]": {"biological_target": "GlcA(b1-3)GlcNAc", "outline": "as §1"}, "[19]": {"biological_target": "GlcA(b1-6)Gal", "outline": "as §1"}, "[20]": {"biological_target": "GlcA3S(b1-3)Gal(b1-4)GlcNAc(b1-2)Man", "outline": "as §1"}, "[21]": {"biological_target": "GlcA3S(b1-3)Gal(b1-4)GlcNAc(b1-3)Gal(b1-4)Glc", "outline": "as §1"}, "[22]": {"biological_target": "GlcNAc(a1-3)Gal(b1-4)GlcNAc", "outline": "as §1"}, "[23]": {"biological_target": "GlcNAc(a1-4)Gal(b1-3)GlcNAc", "outline": "as §1"}, "[24]": {"biological_target": "GlcNAc(a1-4)Gal(b1-4)GalNAc", "outline": "as §1"}, "[25]": {"biological_target": "GlcNAc(a1-4)Gal(b1-4)GlcNAc", "outline": "as §1"}, "[26]": {"biological_target": "GlcNAc(a1-4)Gal(b1-4)GlcNAc(b1-3)Gal(b1-4)Glc", "outline": "as §1"}, "[27]": {"biological_target": "GlcNAc(a1-4)Gal(b1-4)GlcNAc(b1-3)Gal(b1-4)GlcNAc", "outline": "as §1"}, "[28]": {"biological_target": "GlcNAc(a1-4)Gal(b1-4)GlcNAc(b1-3)Gal(b1-4)GlcNAc(b1-3)Gal(b1-4)GlcNAc", "outline": "as §1"}, "[29]": {"biological_target": "GlcNAc(a1-4)Gal(b1-4)GlcNAc(b1-3)Gal(b1-4)[Fuc(a1-3)]GlcNAc(b1-3)Gal(b1-4)[Fuc(a1-3)]GlcNAc", "outline": "as §1"}, "[30]": {"biological_target": "GlcNAc(a1-6)Gal(b1-4)GlcNAc", "outline": "as §1"}, "[31]": {"biological_target": "GlcNAc(b1-2)Gal(b1-3)GalNAc", "outline": "as §1"}, "[32]": {"biological_target": "GlcNAc(b1-2)Man(a1-3)[GlcNAc(b1-2)Man(a1-6)]Man(b1-4)GlcNAc(b1-4)GlcNAc", "outline": "as §1"}, "[33]": {"biological_target": "GlcNAc(b1-2)Man(a1-3)[GlcNAc(b1-2)Man(a1-6)]Man(b1-4)GlcNAc(b1-4)[Fuc(a1-6)]GlcNAc", "outline": "as §1"}, "[34]": {"biological_target": "GlcNAc(b1-2)Man(a1-3)[GlcNAc(b1-4)][GlcNAc(b1-2)Man(a1-6)]Man(b1-4)GlcNAc(b1-4)GlcNAc", "outline": "as §1"}, "[35]": {"biological_target": "GlcNAc(b1-2)Man(a1-3)[GlcNAc(b1-4)][GlcNAc(b1-2)Man(a1-6)]Man(b1-4)GlcNAc(b1-4)[Fuc(a1-6)]GlcNAc", "outline": "as §1"}, "[36]": {"biological_target": "GlcNAc(b1-2)[GlcNAc(b1-4)]Man(a1-3)[GlcNAc(b1-2)Man(a1-6)]Man(b1-4)GlcNAc(b1-4)GlcNAc", "outline": "as §1"}, "[37]": {"biological_target": "GlcNAc(b1-2)[GlcNAc(b1-4)]Man(a1-3)[GlcNAc(b1-4)][GlcNAc(b1-2)Man(a1-6)]Man(b1-4)GlcNAc(b1-4)GlcNAc", "outline": "as §1"}, "[38]": {"biological_target": "GlcNAc(b1-2)[GlcNAc(b1-4)]Man(a1-3)[GlcNAc(b1-4)][GlcNAc(b1-2)[GlcNAc(b1-6)]Man(a1-6)]Man(b1-4)GlcNAc(b1-4)GlcNAc", "outline": "as §1"}, "[39]": {"biological_target": "GlcNAc(b1-2)[GlcNAc(b1-4)]Man(a1-3)[GlcNAc(b1-4)][GlcNAc(b1-2)[GlcNAc(b1-6)]Man(a1-6)]Man(b1-4)GlcNAc(b1-4)[Fuc(a1-6)]GlcNAc", "outline": "as §1"}, "[40]": {"biological_target": "GlcNAc(b1-2)[GlcNAc(b1-6)]Man(a1-6)[GlcNAc(b1-2)Man(a1-3)]Man(b1-4)GlcNAc(b1-4)GlcNAc", "outline": "as §1"}, "[41]": {"biological_target": "GlcNAc(b1-2)[GlcNAc(b1-6)]Man(a1-6)[GlcNAc(b1-2)Man(a1-3)]Man(b1-4)GlcNAc(b1-4)[Fuc(a1-6)]GlcNAc", "outline": "as §1"}, "[42]": {"biological_target": "GlcNAc(b1-2)[GlcNAc(b1-6)]Man(a1-6)[GlcNAc(b1-4)][GlcNAc(b1-2)Man(a1-3)]Man(b1-4)GlcNAc(b1-4)GlcNAc", "outline": "as §1"}, "[43]": {"biological_target": "GlcNAc(b1-3)Fuc", "outline": "as §1"}, "[44]": {"biological_target": "GlcNAc(b1-3)Gal", "outline": "as §1"}, "[45]": {"biological_target": "GlcNAc(b1-3)Gal(b1-3)GalNAc", "outline": "as §1"}}, "note": "This is one part of the list."}
{"binder": "B1", "values": [{"measurement": "glycan array binding signal (z-score)", "setting": "[1]", "result": -2.38}, {"measurement": "glycan array binding signal (z-score)", "setting": "[2]", "result": -0.583}, {"measurement": "glycan array binding signal (z-score)", "setting": "[3]", "result": -0.842}, {"measurement": "glycan array binding signal (z-score)", "setting": "[4]", "result": 0.476}, {"measurement": "glycan array binding signal (z-score)", "setting": "[5]", "result": -1.09}, {"measurement": "glycan array binding signal (z-score)", "setting": "[6]", "result": -0.084}, {"measurement": "glycan array binding signal (z-score)", "setting": "[7]", "result": 2.16}, {"measurement": "glycan array binding signal (z-score)", "setting": "[8]", "result": -0.328}, {"measurement": "glycan array binding signal (z-score)", "setting": "[9]", "result": -0.231}, {"measurement": "glycan array binding signal (z-score)", "setting": "[10]", "result": -0.308}, {"measurement": "glycan array binding signal (z-score)", "setting": "[11]", "result": -0.084}, {"measurement": "glycan array binding signal (z-score)", "setting": "[12]", "result": -0.056}, {"measurement": "glycan array binding signal (z-score)", "setting": "[13]", "result": -0.205}, {"measurement": "glycan array binding signal (z-score)", "setting": "[14]", "result": -0.149}, {"measurement": "glycan array binding signal (z-score)", "setting": "[15]", "result": 2.81}, {"measurement": "glycan array binding signal (z-score)", "setting": "[16]", "result": 0.366}, {"measurement": "glycan array binding signal (z-score)", "setting": "[17]", "result": -0.545}, {"measurement": "glycan array binding signal (z-score)", "setting": "[18]", "result": 0.171}, {"measurement": "glycan array binding signal (z-score)", "setting": "[19]", "result": -0.084}, {"measurement": "glycan array binding signal (z-score)", "setting": "[20]", "result": -0.661}, {"measurement": "glycan array binding signal (z-score)", "setting": "[21]", "result": -0.764}, {"measurement": "glycan array binding signal (z-score)", "setting": "[22]", "result": -0.925}, {"measurement": "glycan array binding signal (z-score)", "setting": "[23]", "result": -0.287}, {"measurement": "glycan array binding signal (z-score)", "setting": "[24]", "result": -0.99}, {"measurement": "glycan array binding signal (z-score)", "setting": "[25]", "result": 0.069}, {"measurement": "glycan array binding signal (z-score)", "setting": "[26]", "result": -0.177}, {"measurement": "glycan array binding signal (z-score)", "setting": "[27]", "result": -0.094}, {"measurement": "glycan array binding signal (z-score)", "setting": "[28]", "result": -0.525}, {"measurement": "glycan array binding signal (z-score)", "setting": "[29]", "result": 0.441}, {"measurement": "glycan array binding signal (z-score)", "setting": "[30]", "result": 0.36}, {"measurement": "glycan array binding signal (z-score)", "setting": "[31]", "result": -0.027}, {"measurement": "glycan array binding signal (z-score)", "setting": "[32]", "result": -0.045}, {"measurement": "glycan array binding signal (z-score)", "setting": "[33]", "result": -1.05}, {"measurement": "glycan array binding signal (z-score)", "setting": "[34]", "result": -0.183}, {"measurement": "glycan array binding signal (z-score)", "setting": "[35]", "result": -0.678}, {"measurement": "glycan array binding signal (z-score)", "setting": "[36]", "result": -0.646}, {"measurement": "glycan array binding signal (z-score)", "setting": "[37]", "result": -0.614}, {"measurement": "glycan array binding signal (z-score)", "setting": "[38]", "result": -0.526}, {"measurement": "glycan array binding signal (z-score)", "setting": "[39]", "result": 2.74}, {"measurement": "glycan array binding signal (z-score)", "setting": "[40]", "result": 0.133}, {"measurement": "glycan array binding signal (z-score)", "setting": "[41]", "result": -0.248}, {"measurement": "glycan array binding signal (z-score)", "setting": "[42]", "result": 0.449}, {"measurement": "glycan array binding signal (z-score)", "setting": "[43]", "result": -0.923}, {"measurement": "glycan array binding signal (z-score)", "setting": "[44]", "result": -0.114}, {"measurement": "glycan array binding signal (z-score)", "setting": "[45]", "result": -0.046}]}
